From patent US20050049198A1, “Method of modulating the activity of calcium channels in cardiac cells and reagents therefor” (priority 2001, published 2005)
No constants are given. Whether binding was seen depends on the method and setting. Some results given as binding are weak or reduced against the parent protein; the word gives no strength.

What was measured:
[1] = molecular target: cardiac ryanodine receptor (RyR2) calcium channel from sheep heart SR vesicles (sheep); test: no direct binding assay; inferred from Ca2+ release from cardiac SR vesicles
[2] = molecular target: cardiac ryanodine receptor (RyR2) calcium channel from sheep heart SR vesicles (sheep); test: no direct binding assay; inferred from single channel recording in lipid bilayers with control peptides NB and A1S

TSAQKAKAEERKRRKMSRGL [20-mer peptide of the II-III cytoplasmic loop of skeletal DHPR alpha-1 subunit (Thr671 to Leu690)]
binding [1]: binds
binding [2]: binds

TSAQKAKAEERKRRKMARGL [SEQ ID NO: 8 peptide (20-mer of SEQ ID NO: 2 with Ser687 replaced by alanine)]
binding [1]: binds
